These are yes or no findings as the source states them, for the method shown. Values belong to the binder of their own block, whether it stands above or below them.
Experiments:
Assay in all cases: SEC; Superdex 200 gel filtration in buffer A (20 mM Hepes pH 7.8, 500 mM NaCl, 1 mM TCEP, 10% glycerol); monomer or dimer read from the elution profile; both purified
[1] = target: PXP(Ypt35sc)-VABsc mutant (R2396E, I2468A, I2473A, M2474A) (S. cerevisiae) (UniProt P38815+Q07878)
[2] = target: PXP(Mcp1sc)-VABsc mutant (R2396E, I2468A, I2473A, M2474A) (S. cerevisiae) (UniProt Q12106+Q07878)
[3] = target: PXP(Spo71sc)-VABsc mutant (R2396E, I2468A, I2473A, M2474A) (S. cerevisiae) (UniProt Q03868+Q07878)

Amino acid sequences for entries named in this document (tags omitted). A change or cut given only in a name is not applied to a line headed by its entry.
UniProt P38815: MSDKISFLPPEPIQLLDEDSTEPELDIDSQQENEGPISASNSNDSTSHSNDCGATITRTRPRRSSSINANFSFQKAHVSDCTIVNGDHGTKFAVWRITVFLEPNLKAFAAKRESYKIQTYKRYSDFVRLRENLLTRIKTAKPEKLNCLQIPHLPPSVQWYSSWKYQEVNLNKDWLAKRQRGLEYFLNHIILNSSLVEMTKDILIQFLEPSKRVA
UniProt Q07878: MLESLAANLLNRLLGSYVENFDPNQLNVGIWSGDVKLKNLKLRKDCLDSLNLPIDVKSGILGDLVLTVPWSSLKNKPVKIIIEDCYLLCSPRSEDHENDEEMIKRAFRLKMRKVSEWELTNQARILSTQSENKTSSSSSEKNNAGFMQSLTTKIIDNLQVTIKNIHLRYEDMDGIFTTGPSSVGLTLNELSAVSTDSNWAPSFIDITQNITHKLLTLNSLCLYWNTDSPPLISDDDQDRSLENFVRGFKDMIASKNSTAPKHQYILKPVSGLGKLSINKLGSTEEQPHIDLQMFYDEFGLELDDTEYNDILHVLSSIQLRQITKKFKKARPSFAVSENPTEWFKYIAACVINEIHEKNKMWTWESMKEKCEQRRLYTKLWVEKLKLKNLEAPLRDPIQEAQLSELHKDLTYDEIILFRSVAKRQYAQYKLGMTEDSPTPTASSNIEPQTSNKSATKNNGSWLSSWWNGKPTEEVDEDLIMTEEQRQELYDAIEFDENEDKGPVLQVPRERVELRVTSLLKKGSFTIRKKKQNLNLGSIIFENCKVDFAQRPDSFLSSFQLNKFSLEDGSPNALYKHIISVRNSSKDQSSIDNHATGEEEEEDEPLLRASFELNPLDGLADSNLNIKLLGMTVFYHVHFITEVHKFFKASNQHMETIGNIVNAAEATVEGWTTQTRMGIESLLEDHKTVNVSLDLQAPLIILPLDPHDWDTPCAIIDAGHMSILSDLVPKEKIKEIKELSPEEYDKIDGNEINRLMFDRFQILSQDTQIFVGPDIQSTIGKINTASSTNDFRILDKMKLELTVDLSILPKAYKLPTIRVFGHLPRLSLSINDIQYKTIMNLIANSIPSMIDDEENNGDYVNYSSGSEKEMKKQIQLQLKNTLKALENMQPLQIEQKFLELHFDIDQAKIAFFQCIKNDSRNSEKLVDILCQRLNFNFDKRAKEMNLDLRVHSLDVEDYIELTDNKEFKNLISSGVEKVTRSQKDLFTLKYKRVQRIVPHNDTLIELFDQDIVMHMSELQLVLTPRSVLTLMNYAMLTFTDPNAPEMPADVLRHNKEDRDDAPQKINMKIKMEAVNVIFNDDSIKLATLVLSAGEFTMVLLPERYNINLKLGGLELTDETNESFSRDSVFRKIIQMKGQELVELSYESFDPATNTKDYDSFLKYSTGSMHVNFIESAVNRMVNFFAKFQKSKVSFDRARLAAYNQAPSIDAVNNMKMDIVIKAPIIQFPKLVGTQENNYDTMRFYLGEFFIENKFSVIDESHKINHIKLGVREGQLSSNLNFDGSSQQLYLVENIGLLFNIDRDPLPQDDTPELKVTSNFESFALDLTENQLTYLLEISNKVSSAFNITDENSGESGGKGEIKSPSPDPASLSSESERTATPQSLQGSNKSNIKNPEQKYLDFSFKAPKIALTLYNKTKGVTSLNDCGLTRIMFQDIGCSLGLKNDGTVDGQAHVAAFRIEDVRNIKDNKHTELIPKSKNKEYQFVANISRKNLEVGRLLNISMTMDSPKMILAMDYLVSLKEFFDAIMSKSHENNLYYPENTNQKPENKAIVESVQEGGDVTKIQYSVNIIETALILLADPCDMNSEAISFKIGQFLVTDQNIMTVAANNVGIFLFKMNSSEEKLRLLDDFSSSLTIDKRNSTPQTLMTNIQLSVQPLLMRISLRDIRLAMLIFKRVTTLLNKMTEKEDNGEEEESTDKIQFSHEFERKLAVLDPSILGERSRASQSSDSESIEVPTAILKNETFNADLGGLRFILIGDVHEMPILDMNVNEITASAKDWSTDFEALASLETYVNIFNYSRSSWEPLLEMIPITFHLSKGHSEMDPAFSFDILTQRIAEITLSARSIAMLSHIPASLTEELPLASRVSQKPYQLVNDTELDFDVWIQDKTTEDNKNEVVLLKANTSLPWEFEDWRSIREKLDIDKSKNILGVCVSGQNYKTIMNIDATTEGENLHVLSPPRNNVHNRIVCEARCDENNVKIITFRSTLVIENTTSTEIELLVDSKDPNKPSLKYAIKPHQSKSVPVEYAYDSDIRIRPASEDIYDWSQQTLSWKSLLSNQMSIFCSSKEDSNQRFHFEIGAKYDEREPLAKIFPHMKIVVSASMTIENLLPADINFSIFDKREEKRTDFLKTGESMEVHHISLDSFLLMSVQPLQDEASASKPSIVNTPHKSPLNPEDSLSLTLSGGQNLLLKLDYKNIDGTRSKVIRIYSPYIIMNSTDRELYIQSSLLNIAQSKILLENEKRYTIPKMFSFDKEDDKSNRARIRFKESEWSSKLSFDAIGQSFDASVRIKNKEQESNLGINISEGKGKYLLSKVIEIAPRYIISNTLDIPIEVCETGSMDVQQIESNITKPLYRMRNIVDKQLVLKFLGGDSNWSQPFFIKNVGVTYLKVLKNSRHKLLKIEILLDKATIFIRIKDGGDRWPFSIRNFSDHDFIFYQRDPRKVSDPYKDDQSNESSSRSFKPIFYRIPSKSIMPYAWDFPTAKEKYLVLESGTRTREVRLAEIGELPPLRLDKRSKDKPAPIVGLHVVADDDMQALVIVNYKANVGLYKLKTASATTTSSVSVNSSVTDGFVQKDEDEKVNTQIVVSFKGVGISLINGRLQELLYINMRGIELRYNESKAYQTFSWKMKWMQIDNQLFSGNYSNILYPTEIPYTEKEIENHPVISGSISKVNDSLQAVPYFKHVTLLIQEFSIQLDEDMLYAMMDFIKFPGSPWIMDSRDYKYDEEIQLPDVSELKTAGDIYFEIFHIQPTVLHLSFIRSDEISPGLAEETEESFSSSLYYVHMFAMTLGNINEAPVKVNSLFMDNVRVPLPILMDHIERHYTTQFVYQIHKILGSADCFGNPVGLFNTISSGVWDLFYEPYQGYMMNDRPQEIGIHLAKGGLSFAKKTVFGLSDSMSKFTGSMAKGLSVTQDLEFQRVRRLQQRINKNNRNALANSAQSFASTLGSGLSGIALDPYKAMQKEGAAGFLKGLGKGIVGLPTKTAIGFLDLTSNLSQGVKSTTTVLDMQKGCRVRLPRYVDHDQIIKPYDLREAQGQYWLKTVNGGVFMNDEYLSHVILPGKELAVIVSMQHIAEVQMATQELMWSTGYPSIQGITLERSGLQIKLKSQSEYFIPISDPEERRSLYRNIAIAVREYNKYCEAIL
UniProt Q12106: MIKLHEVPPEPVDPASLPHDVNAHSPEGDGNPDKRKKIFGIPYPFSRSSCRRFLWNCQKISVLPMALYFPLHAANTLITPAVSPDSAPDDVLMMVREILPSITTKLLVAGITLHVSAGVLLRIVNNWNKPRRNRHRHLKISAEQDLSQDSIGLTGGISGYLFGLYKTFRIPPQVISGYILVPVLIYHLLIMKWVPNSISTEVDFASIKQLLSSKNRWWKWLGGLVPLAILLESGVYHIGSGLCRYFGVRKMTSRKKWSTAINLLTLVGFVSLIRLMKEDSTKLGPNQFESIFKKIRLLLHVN
UniProt Q03868: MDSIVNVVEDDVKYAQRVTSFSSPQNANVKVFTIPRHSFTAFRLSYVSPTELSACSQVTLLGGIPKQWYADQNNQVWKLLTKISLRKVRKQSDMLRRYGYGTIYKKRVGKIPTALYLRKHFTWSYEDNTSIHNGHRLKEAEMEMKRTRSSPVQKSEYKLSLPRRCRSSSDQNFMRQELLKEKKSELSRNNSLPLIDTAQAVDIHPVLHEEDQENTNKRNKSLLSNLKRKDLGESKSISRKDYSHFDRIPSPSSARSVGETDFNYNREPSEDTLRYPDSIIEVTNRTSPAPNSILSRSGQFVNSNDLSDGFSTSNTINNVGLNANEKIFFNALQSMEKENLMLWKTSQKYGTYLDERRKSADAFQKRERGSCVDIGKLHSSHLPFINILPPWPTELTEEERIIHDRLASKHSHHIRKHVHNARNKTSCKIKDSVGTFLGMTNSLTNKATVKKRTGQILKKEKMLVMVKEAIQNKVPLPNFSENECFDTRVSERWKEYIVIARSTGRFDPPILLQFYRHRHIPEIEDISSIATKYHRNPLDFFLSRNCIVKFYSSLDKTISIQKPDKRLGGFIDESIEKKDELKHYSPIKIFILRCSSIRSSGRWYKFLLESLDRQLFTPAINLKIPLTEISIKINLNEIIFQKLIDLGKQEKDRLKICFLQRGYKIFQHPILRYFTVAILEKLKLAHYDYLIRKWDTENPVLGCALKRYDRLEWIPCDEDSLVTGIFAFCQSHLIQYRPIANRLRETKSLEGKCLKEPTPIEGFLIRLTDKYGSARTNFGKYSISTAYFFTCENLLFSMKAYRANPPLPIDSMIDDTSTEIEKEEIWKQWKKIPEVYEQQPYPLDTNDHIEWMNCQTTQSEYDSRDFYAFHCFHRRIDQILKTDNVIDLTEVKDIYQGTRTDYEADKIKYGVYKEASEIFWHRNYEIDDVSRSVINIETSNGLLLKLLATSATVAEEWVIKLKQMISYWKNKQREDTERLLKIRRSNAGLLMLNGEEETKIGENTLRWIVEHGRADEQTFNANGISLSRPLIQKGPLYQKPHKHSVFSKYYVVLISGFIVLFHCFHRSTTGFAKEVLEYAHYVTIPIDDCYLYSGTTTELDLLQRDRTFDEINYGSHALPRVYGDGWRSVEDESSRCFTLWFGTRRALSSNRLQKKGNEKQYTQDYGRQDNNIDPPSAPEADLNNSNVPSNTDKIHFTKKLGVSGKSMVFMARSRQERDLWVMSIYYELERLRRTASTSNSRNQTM

- binding [1]: no binding
B1: PXP(Ypt35sc)-VABsc mutant (R2396E, I2468A, I2473A, M2474A) (protein, UniProt P38815 2-22; Q07878 1869-2545)
chain: SDKISFLPPEPIQLLDEDSTEKPYQLVNDTELDFDVWIQDKTTEDNKNEVVLLKANTSLPWEFEDWRSIREKLDIDKSKNILGVCVSGQNYKTIMNIDATTEGENLHVLSPPRNNVHNRIVCEARCDENNVKIITFRSTLVIENTTSTEIELLVDSKDPNKPSLKYAIKPHQSKSVPVEYAYDSDIRIRPASEDIYDWSQQTLSWKSLLSNQMSIFCSSKEDSNQRFHFEIGAKYDEREPLAKIFPHMKIVVSASMTIENLLPADINFSIFDKREEKRTDFLKTGESMEVHHISLDSFLLMSVQPLQDEASASKPSIVNTPHKSPLNPEDSLSLTLSGGQNLLLKLDYKNIDGTRSKVIRIYSPYIIMNSTDRELYIQSSLLNIAQSKILLENEKRYTIPKMFSFDKEDDKSNRARIRFKESEWSSKLSFDAIGQSFDASVRIKNKEQESNLGINISEGKGKYLLSKVIEIAPRYIISNTLDIPIEVCETGSMDVQQIESNITKPLYRMRNIVDKQLVLKFLGGDSNWSQPFFIKNVGVTYLKVLKNSEHKLLKIEILLDKATIFIRIKDGGDRWPFSIRNFSDHDFIFYQRDPRKVSDPYKDDQSNESSSRSFKPIFYRAPSKSAAPYAWDFPTAKEKYLVLESGTRTREVRLAEIGELPPLRLDKRSKDKPAPIVGLHVVADDDMQALVIVNYKAN

- binding [2]: no binding
B2: PXP(Mcp1sc)-VABsc mutant (R2396E, I2468A, I2473A, M2474A) (protein, UniProt Q12106 2-20; Q07878 1869-2545)
chain: IKLHEVPPEPVDPASLPHDKPYQLVNDTELDFDVWIQDKTTEDNKNEVVLLKANTSLPWEFEDWRSIREKLDIDKSKNILGVCVSGQNYKTIMNIDATTEGENLHVLSPPRNNVHNRIVCEARCDENNVKIITFRSTLVIENTTSTEIELLVDSKDPNKPSLKYAIKPHQSKSVPVEYAYDSDIRIRPASEDIYDWSQQTLSWKSLLSNQMSIFCSSKEDSNQRFHFEIGAKYDEREPLAKIFPHMKIVVSASMTIENLLPADINFSIFDKREEKRTDFLKTGESMEVHHISLDSFLLMSVQPLQDEASASKPSIVNTPHKSPLNPEDSLSLTLSGGQNLLLKLDYKNIDGTRSKVIRIYSPYIIMNSTDRELYIQSSLLNIAQSKILLENEKRYTIPKMFSFDKEDDKSNRARIRFKESEWSSKLSFDAIGQSFDASVRIKNKEQESNLGINISEGKGKYLLSKVIEIAPRYIISNTLDIPIEVCETGSMDVQQIESNITKPLYRMRNIVDKQLVLKFLGGDSNWSQPFFIKNVGVTYLKVLKNSEHKLLKIEILLDKATIFIRIKDGGDRWPFSIRNFSDHDFIFYQRDPRKVSDPYKDDQSNESSSRSFKPIFYRAPSKSAAPYAWDFPTAKEKYLVLESGTRTREVRLAEIGELPPLRLDKRSKDKPAPIVGLHVVADDDMQALVIVNYKAN

- binding [3]: no binding
B3: PXP(Spo71sc)-VABsc mutant (R2396E, I2468A, I2473A, M2474A) (protein, UniProt Q03868 380-400; Q07878 1869-2545)
chain: SHLPFINILPPWPTELTEEERKPYQLVNDTELDFDVWIQDKTTEDNKNEVVLLKANTSLPWEFEDWRSIREKLDIDKSKNILGVCVSGQNYKTIMNIDATTEGENLHVLSPPRNNVHNRIVCEARCDENNVKIITFRSTLVIENTTSTEIELLVDSKDPNKPSLKYAIKPHQSKSVPVEYAYDSDIRIRPASEDIYDWSQQTLSWKSLLSNQMSIFCSSKEDSNQRFHFEIGAKYDEREPLAKIFPHMKIVVSASMTIENLLPADINFSIFDKREEKRTDFLKTGESMEVHHISLDSFLLMSVQPLQDEASASKPSIVNTPHKSPLNPEDSLSLTLSGGQNLLLKLDYKNIDGTRSKVIRIYSPYIIMNSTDRELYIQSSLLNIAQSKILLENEKRYTIPKMFSFDKEDDKSNRARIRFKESEWSSKLSFDAIGQSFDASVRIKNKEQESNLGINISEGKGKYLLSKVIEIAPRYIISNTLDIPIEVCETGSMDVQQIESNITKPLYRMRNIVDKQLVLKFLGGDSNWSQPFFIKNVGVTYLKVLKNSEHKLLKIEILLDKATIFIRIKDGGDRWPFSIRNFSDHDFIFYQRDPRKVSDPYKDDQSNESSSRSFKPIFYRAPSKSAAPYAWDFPTAKEKYLVLESGTRTREVRLAEIGELPPLRLDKRSKDKPAPIVGLHVVADDDMQALVIVNYKAN

From PMC8978259, “Structural and biochemical insights into lipid transport by VPS13 proteins” (The Journal of Cell Biology, 2022)
